The full ranking holds about 2,300 compounds; the median of “plate-normalized OD600 growth (mean of duplicates)” is about 0.29, and the lowest 2% start at about 0.22. The list shows a part of the results.
System: Escherichia coli BW25113
Assay: plate-normalized OD600 growth (mean of duplicates) (OD600 (normalized)); higher = more growth (less inhibition)
Conditions: 10 µM
Description: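 E. coli BW25113 in LB (100 µl, 96-well, no shaking) was exposed to 10 µM of each compound from a ~30,000-member library and grown at 37°C for 24 h or 15°C for 48 h, in duplicate. Growth was read as OD600 and the duplicate ODs were normalized across screening plates to correct plate-to-plate variation. Hits were >3σ below the mean OD600 at 15°C and <2σ below the mean at 37°C.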

Row | SMILES | plate-normalized OD600 growth (temperature: 15°C, 48 h) | plate-normalized OD600 growth (temperature: 37°C, 24 h)
1 | O=C(NC1Cc2ccccc2C1)c1cncc(Br)c1 | 0.281 | 0.658
2 | COc1cccc(CC(=O)NC2CCN(c3nccc(C(F)(F)F)n3)CC2)c1 | 0.252 | 0.642
3 | CC(C)=NNC(=O)CNC(=O)CNS(=O)(=O)c1ccc([N+](=O)[O-])cc1 | 0.231 | 0.603
4 | Cc1sc(NC(=O)c2cc3ccccc3oc2=O)nc1-c1ccc(-c2ccccc2)cc1 | 0.253 | 0.625
5 | O=C(CN(c1ccc(Cl)cc1)S(=O)(=O)c1ccccc1)N/N=C/c1cccc(O)c1O | 0.244 | 0.638
6 | CCCCc1ccc(-n2nc3cc(C)c(N)cc3n2)cc1 | 0.254 | 0.613
7 | CCC1SC(=Nc2ccccc2C)NC1=O (stereo not drawn) | 0.222 | 0.636
8 | O=C(NNC(=S)Nc1cccc(Cl)c1)c1ccncc1 | 0.234 | 0.597
9 | CC(=O)c1ccc2c3c(onc13)-c1ccccc1C2=O | 0.253 | 0.644
10 | O=C1/C(=C\c2ccccc2)N=C(c2ccccc2)N1CNc1nccs1 | 0.254 | 0.585
11 | Nc1[nH]c(=O)c(CO)c(N)c1S(=O)(=O)c1ccccc1 | 0.211 | 0.632
12 | COC(=O)c1ccsc1N | 0.253 | 0.623
13 | CSC(=CC(=O)c1ccc(Cl)cc1)SC | 0.236 | 0.624
14 | COC(=O)C(=NNc1ccccc1)C(=O)OC | 0.253 | 0.62
15 | COc1cc(NC(=O)CCN2CCC(C)CC2)cc(OC)c1 | 0.217 | 0.647
16 | N/C(=N/OS(=O)(=O)c1ccc(Cl)cc1)c1ccc(C(F)(F)F)cc1 | 0.26 | 0.613
17 | COc1ccc2c(=S)c(-c3csc(C)n3)c(C)oc2c1 | 0.251 | 0.613
18 | O=C(NCc1ccc2c(c1)OCO2)Nc1ccccc1 | 0.25 | 0.627
19 | CCC(=O)Nc1cc(F)ccc1C | 0.253 | 0.623
20 | O=C(OC1CCCCC1)c1ccc(NS(=O)(=O)c2ccc([N+](=O)[O-])cc2)cc1 | 0.262 | 0.622
21 | CC(=O)Nc1ccc(S(=O)(=O)NCCCN2CCN(Cc3ccccc3)CC2)cc1Cl | 0.222 | 0.644
22 | Cc1ccc(C2=NOC(=O)/C2=C\c2ccc(F)c(Oc3ccccc3)c2)cc1 | 0.256 | 0.657
23 | COc1cc(C(=O)N/N=C/c2cc(C)n(-c3cccc(C(=O)O)c3C)c2C)ccc1I | 0.258 | 0.672
24 | COc1ccc(O)c(C2NC(CC(C)C)(C(=O)O)C3C(=O)N(c4ccccc4OC)C(=O)C23)c1 (stereo not drawn) | 0.245 | 0.613
25 | Cc1ccc(C(=O)c2c(NC(=O)c3ccncc3)sc3c2CCCC3)cc1 | 0.251 | 0.635

Some of the entries so far, with tabs.
Row	SMILES	plate-normalized OD600 growth (temperature: 15°C, 48 h)	plate-normalized OD600 growth (temperature: 37°C, 24 h)
5	O=C(CN(c1ccc(Cl)cc1)S(=O)(=O)c1ccccc1)N/N=C/c1cccc(O)c1O	0.244	0.638
21	CC(=O)Nc1ccc(S(=O)(=O)NCCCN2CCN(Cc3ccccc3)CC2)cc1Cl	0.222	0.644
23	COc1cc(C(=O)N/N=C/c2cc(C)n(-c3cccc(C(=O)O)c3C)c2C)ccc1I	0.258	0.672

Going on with the list.

Row | SMILES | plate-normalized OD600 growth (temperature: 15°C, 48 h) | plate-normalized OD600 growth (temperature: 37°C, 24 h)
26 | O=C(CNC(=O)C(c1ccccc1)c1ccccc1)N/N=C/c1cc([N+](=O)[O-])cc([N+](=O)[O-])c1O | 0.265 | 0.633
27 | CC(=O)Nc1ccc(NC(=O)CSc2nnc(NS(C)(=O)=O)s2)cc1 | 0.252 | 0.63
28 | C=CCn1c(Sc2ncc([N+](=O)[O-])s2)n[nH]c1=O | 0.181 | 0.588
29 | COc1ccc(C2C(C(C)=O)=C(C)N=C3SCC(=O)N32)c(OC)c1 (stereo not drawn) | 0.242 | 0.592
30 | Cc1ccc2[nH]c(C)c(CCNC(=O)c3sc4ccccc4c3Cl)c2c1 | 0.262 | 0.62
31 | CC(=O)c1ccc(N=Cc2cc(C)n(-c3ccc(C)c(C)c3)c2C)cc1 | 0.227 | 0.634
32 | Cc1ccc(C(C)C)c(OCC(=O)N/N=C/c2ccc(O)c(O)c2)c1 | 0.255 | 0.631
33 | O=C1/C(=C/c2ccco2)N=C(c2ccccc2)N1c1ccc(C(=O)N2c3ccccc3Sc3ccccc32)cc1 | 0.251 | 0.644
34 | Nc1c(C(=O)c2cc3ccccc3o2)oc2ccc(Br)cc12 | 0.24 | 0.629
35 | O=C(NC(=S)Nc1ccc(Cl)cc1)c1ccc([N+](=O)[O-])o1 | 0.266 | 0.645
36 | Cc1ccc(NC(=S)C(C#N)C(=O)N2CCCC2)c(C)c1 (stereo not drawn) | 0.251 | 0.624
37 | CC(=O)c1cnn(-c2ccccc2)c1C | 0.259 | 0.623
38 | C=CCOc1ccc2c(C)c(CCCC)c(=O)oc2c1 | 0.237 | 0.628
39 | COc1ccc(OCc2nc3ccccc3n2CC(C)C)cc1 | 0.234 | 0.627
40 | Cc1ccccc1N1C(=O)c2ccccc2C1=O | 0.23 | 0.61
41 | Cc1ccccc1OCC1Cn2c(nc3c2c(=O)[nH]c(=O)n3C)O1 (stereo not drawn) | 0.253 | 0.602
42 | O=S(=O)(NCc1ccc2c(c1)OCO2)c1ccc(F)c(Cl)c1 | 0.234 | 0.616
43 | COc1ccc(S(=O)(=O)NCCc2c(C)[nH]c3ccc(Br)cc23)c2ccccc12 | 0.249 | 0.605
44 | CC(C)(C)C(=O)Nc1cccc(C(=O)Nc2ccc3c(c2)-c2cc(NC(=O)c4cccc(NC(=O)C(C)(C)C)c4)ccc2C3)c1 | 0.254 | 0.631
45 | Cc1oc(N=Cc2ccc(-c3ccc([N+](=O)[O-])cc3)o2)c(C#N)c1C | 0.241 | 0.597
46 | NCc1nc2ccccc2n1Cc1ccccc1 | 0.24 | 0.606
47 | CCc1c(C)nc2cc(-c3ccc(Cl)cc3)[nH]n2c1=O | 0.214 | 0.632
48 | N#CC1=C(S)N=C(N)C(c2nc(-c3ccccc3)cs2)C12CCCCC2 (stereo not drawn) | 0.24 | 0.624
49 | CCN(CC)c1ccc(O)c(C=Nc2ccc(S(=O)(=O)O)cc2C(=O)O)c1 | 0.254 | 0.613

Reference: the supplement of paper PMC4371806
